The values that follow come from paper PMC6949223.

No constants are given. Whether binding was seen depends on the method and setting. Binding seen in cells or lysates may run through a third protein. Some binding calls cover weakened binding; strength is not graded here. Sequences can lack the tags named with a protein.

For test [1], the target named is T1, HA-tagged SGK196-4NQ (N67/165/220/235Q mutant) (human) (UniProt Q9H5K3).
T1 sequence: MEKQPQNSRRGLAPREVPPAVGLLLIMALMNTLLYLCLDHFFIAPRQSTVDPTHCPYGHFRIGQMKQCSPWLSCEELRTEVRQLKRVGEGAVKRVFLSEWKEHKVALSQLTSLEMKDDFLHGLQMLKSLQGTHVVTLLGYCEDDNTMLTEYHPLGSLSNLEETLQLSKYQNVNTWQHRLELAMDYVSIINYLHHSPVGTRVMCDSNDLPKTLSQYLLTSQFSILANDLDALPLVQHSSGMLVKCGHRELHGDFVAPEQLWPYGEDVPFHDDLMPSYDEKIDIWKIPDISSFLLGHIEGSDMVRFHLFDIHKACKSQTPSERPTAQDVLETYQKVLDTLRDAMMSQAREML
The test is described as follows: co-IP; HEK293 cells; lysate (1 mg) in 50 mM Tris-HCl pH 7.4, 150 mM NaCl, 1% NP-40, 0.1% SDS, 1 mM EDTA with Protein A/G magnetic beads and antibodies overnight; Western blotting.

Test [2] deals with HA-tagged SGK196-WT (protein O-mannose kinase) (human) (UniProt Q9H5K3). The description is as above.

B1: FLAG-RPN1 (ribophorin I) (protein, UniProt P04843 24-607)
chain: ASSEAPPLINEDVKRTVDLSSHLAKVTAEVVLAHLGGGSTSRATSFLLALEPELEARLAHLGVQVKGEDEEENNLEVRETKIKGKSGRFFTVKLPVALDPGAKISVIVETVYTHVLHPYPTQITQSEKQFVVFEGNHYFYSPYPTKTQTMRVKLASRNVESYTKLGNPTRSEDLLDYGPFRDVPAYSQDTFKVHYENNSPFLTITSMTRVIEVSHWGNIAVEENVDLKHTGAVLKGPFSRYDYQRQPDSGISSIRSFKTILPAAAQDVYYRDEIGNVSTSHLLILDDSVEMEIRPRFPLFGGWKTHYIVGYNLPSYEYLYNLGDQYALKMRFVDHVFDEQVIDSLTVKIILPEGAKNIEIDSPYEISRAPDELHYTYLDTFGRPVIVAYKKNLVEQHIQDIVVHYTFNKVLMLQEPLLVVAAFYILFFTVIIYVRLDFSITKDPAAEARMKVACITEQVLTLVNKRIGLYRHFDETVNRYKQSRDISTLNSGKKSLETEHKALTSEIALLQSRLKTEGSDLCDRVSEMQKLDAQVKELVLKSAVEAERLVAGKLKKDTYIENEKLISGKRQELVTKIDHILDAL
On to B1, for which the binding result in test [1] and in test [2] was “binds” in each case.
